# Experimental data: PubChem BioAssay AID1053208 (Peter MacCallum Cancer Centre, 2014)
# Aim: 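Find knock-downs that sensitise mouse osteosarcoma cells to doxorubicin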 (primary screen)
# Cell system: mouse osteosarcoma cells, early-passage culture from an engineered mouse model of fibroblastic bone tumour
# Knock-down reagent: siRNA pool against mouse genes, 40 nM
# Duration: about 120 h (48 h before drug, then 72 h with drug)
# Conditions: doxorubicin 100 nM for 72 h, roughly 30-40% inhibitory dose
# Measurement: 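Viability read as ATP luminescence after 72 h of 100 nM doxorubicin or none, duplicate wells averaged, scaled to non-targeting siRNA, then expressed as robust z-scores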
# Direction: viability z-score with doxorubicin: higher = more viable cells under doxorubicin; viability z-score without drug: higher = more viable cells with knock-down alone
# Call rule: 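Called active if knock-down leaves viability unchanged without drug (z within -2 to 2) but lowers it with doxorubicin (z at or under -2)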
# Shown is a random part of about 17,000 reagents. In the full data, 788 (4.7%) got an active call. 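Calls rest on z-score classes alone; an extra cut-off of viability at most 70% of control was not applied to them.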 Some reagents were tested in more than one well and are listed for each. Further read-outs or replicates are left out here.
The opening 5 entries, to show the layout:
gene,combined z-score class,viability z-score with doxorubicin,viability z-score without drug,outcome
Tmem70,no change with or without drug,1.35,0.84,inactive
Srd5a1,no change with or without drug,-0.9,0,inactive
Vps37a,no change with or without drug,-0.67,-0.84,inactive
Krtap19-5,no change with or without drug,-1.35,0,inactive
Melk,no change with or without drug,0.67,-0.17,inactive

The list itself, from the first entry:
gene,combined z-score class,viability z-score with doxorubicin,viability z-score without drug,outcome
Tmem70,no change with or without drug,1.35,0.84,inactive
Srd5a1,no change with or without drug,-0.9,0,inactive
Vps37a,no change with or without drug,-0.67,-0.84,inactive
Krtap19-5,no change with or without drug,-1.35,0,inactive
Melk,no change with or without drug,0.67,-0.17,inactive
Peg12,low cell count with doxorubicin only,-2.81,-0.17,active
Jph3,no change with or without drug,-0.11,0.17,inactive
Olfml2b,no change with or without drug,-0.22,-0.84,inactive
Pard6a,no change with or without drug,0.22,1.35,inactive
Cryba1,no change with or without drug,-0.22,0.84,inactive
Endod1,no change with or without drug,-1.57,-0.17,inactive
Or2b6,no change with or without drug,-0.79,0.17,inactive
Qki,no change with or without drug,0.34,0.67,inactive
Actl6a,no change with or without drug,0.79,0.17,inactive
Actl6a,no change with or without drug,1.01,0.51,inactive
Osbpl6,low cell count with doxorubicin only,-2.14,-1.18,active
Speer4b,no change with or without drug,0.9,1.18,inactive
Neu3,no change with or without drug,-0.22,0.51,inactive
Bbc3,no change with or without drug,1.12,-0.84,inactive
Msr1,no change with or without drug,1.24,-0.84,inactive
Shh,no change with or without drug,0.79,-0.51,inactive
Traf1,no change with or without drug,1.01,0.67,inactive
Fbxl19,no change with or without drug,0.34,0.67,inactive
Or5ak22,no change with or without drug,-0.11,-0.51,inactive
Hira,no change with or without drug,0.79,1.01,inactive
Il24,no change with or without drug,-0.22,-1.18,inactive
Or2g25,no change with or without drug,-1.35,-0.17,inactive
Ptprh,no change with or without drug,-0.22,-0.84,inactive
Or51k1,no change with or without drug,-0.67,-1.18,inactive
Mageb18,no change with or without drug,-0.79,0.84,inactive
Rgs3,no change with or without drug,-0.22,-1.18,inactive
Smad7,high cell count with and without drug,2.02,2.36,inactive
Chrdl2,no change with or without drug,-1.12,1.18,inactive
Zhx1,high cell count with and without drug,2.59,5.73,inactive
Ptgr3,no change with or without drug,-0.45,-0.84,inactive
Mdh1b,high cell count without drug only,0.67,2.19,inactive
Or8b43,high cell count without drug only,0.45,2.87,inactive
Dnajc9,no change with or without drug,0.9,1.18,inactive
Agpat5,no change with or without drug,-1.12,-0.17,inactive
Ccm2,no change with or without drug,-0.79,0.84,inactive
Arf3,low cell count with doxorubicin only,-2.02,-0.84,active
Adamts1,no change with or without drug,0.22,0.17,inactive
Slc22a26,no change with or without drug,1.46,-0.51,inactive
Slc6a11,no change with or without drug,1.01,0.51,inactive
Mbl1,no change with or without drug,0.22,-0.17,inactive
Simc1,no change with or without drug,1.12,1.85,inactive
Guca2a,no change with or without drug,0.34,0.17,inactive
Hmx1,no change with or without drug,1.12,-0.84,inactive
Or5t5,no change with or without drug,0.34,1.52,inactive
Hmgb4,low cell count with doxorubicin only,-2.25,0,active
TRPM3,no change with or without drug,-1.35,-0.17,inactive
Dpp7,no change with or without drug,-0.67,1.18,inactive
Trpm1,no change with or without drug,0.45,1.35,inactive
Tmem171,no change with or without drug,-0.9,1.18,inactive
Triqk,no change with or without drug,0.45,0.84,inactive
Bdkrb1,high cell count without drug only,0,2.36,inactive
Defb39,no change with or without drug,-0.45,0.84,inactive
Or10d1,no change with or without drug,-1.35,-1.52,inactive
Pip5k1b,no change with or without drug,0.9,-0.34,inactive
Phactr4,low cell count with doxorubicin only,-2.92,-0.67,active
Pih1d2,no change with or without drug,0.9,1.18,inactive
Nsun3,no change with or without drug,-0.45,0.51,inactive
Hbegf,no change with or without drug,-1.01,0.17,inactive
